From PubChem BioAssay AID248 (DTP/NCI, 2004)
The list shows only some results of the screen, not a fair sample: it is rich in T/C values a quarter to a half above the control, in often repeated tests (any T/C) and in doses without a T/C. Further doses and runs are listed elsewhere. T/C: endpoint of the treated group in % of that of the vehicle group. Some entries give survivors of the animals treated and no T/C: the source files T/C as zero there, which appears to mark a toxic dose or a test without result, not a measured value. Some survivor counts are full or nearly so, which does not show that the dose was tolerated: the source hardly ever lists a survival T/C far under the control, and the zero likely stands for such cases as well. Survivors were counted at the toxicity check, usually on the fifth day, unless a day is given; later deaths do not show. Schedule codes are those of the source, taken here to give the interval after Q, in days (D) or hours (H), and the number of doses after X. Some entries were tested several times; the values are given in rising order. Some schedule codes hold Z or #, which are not explained here. Some molecules as drawn cover several salts, stereoisomers or complexes of the source; a dose is that of the sample tested. Where survival is the endpoint, this PubChem deposit counts one and a half times the control or more as active, and values a quarter to a half above the control carry no call in these data; other NCI protocols may use other cut-offs. Some T/C values carry the count of animals alive at the toxicity check (mostly the fifth day); without a count, all were alive then.

System: L1210 leukemia ip in BDF1 mice, survival T/C
Assay: NCI In Vivo Anticancer Drug Screen. Data for tumor model L1210 Leukemia (intraperitoneal) in B6D2F1 (BDF1) mice
Conditions: T/C endpoint: mean survival time, higher T/C = longer survival
[1] = dose: 400.0 mg/kg/injection, schedule: Q01DX001 (ip), vehicle: Klucel (hydroxypropylcellulose) (HPC)
[2] = dose: 100.0 mg/kg/injection, schedule: Q01DX001 (ip), vehicle: carboxymethylcellulose (CMC)
[3] = dose: 200.0 mg/kg/injection, schedule: Q01DX001 (ip), vehicle: carboxymethylcellulose (CMC)
[4] = dose: 400.0 mg/kg/injection, schedule: Q01DX001 (ip), vehicle: carboxymethylcellulose (CMC)
[5] = dose: 400.0 mg/kg/injection, schedule: Q01DX001 (ip), vehicle: saline
[6] = dose: 400.0 mg/kg/injection, schedule: Q01DX009 (ip), vehicle: saline
[7] = dose: 200.0 mg/kg/injection, schedule: Q01DX009 (ip), vehicle: Klucel (hydroxypropylcellulose) (HPC)
[8] = dose: 400.0 mg/kg/injection, schedule: Q04DX003 (ip), vehicle: saline
[9] = dose: 100.0 mg/kg/injection, schedule: Q01DX009 (ip), vehicle: saline with Tween-80
[10] = dose: 200.0 mg/kg/injection, schedule: Q01DX009 (ip), vehicle: saline with Tween-80
[11] = dose: 200.0 mg/kg/injection, schedule: Q04DX003 (ip), vehicle: saline with Tween-80
[12] = dose: 400.0 mg/kg/injection, schedule: Q01DX009 (ip), vehicle: saline with Tween-80
[13] = dose: 400.0 mg/kg/injection, schedule: Q04DX003 (ip), vehicle: saline with Tween-80

`Cc1ccccc1C[As](C)(=O)O` was tested. Which survivor count [1] did it give?
Its survivor count is 0 of 6.

With `CCC1CCCCN1C` (stereo not drawn) as the compound, how does the survivor count (dose: 150.0 mg/kg/injection, schedule: Q01DX009 (ip), vehicle: saline with Tween-80) read?
Its survivor count is 0 of 6.

And the survivor count (dose: 225.0 mg/kg/injection, schedule: Q01DX009 (ip), vehicle: saline with Tween-80)?
Its survivor count is 0 of 6.

And the survivor count (dose: 335.0 mg/kg/injection, schedule: Q01DX009 (ip), vehicle: saline with Tween-80)?
The survivor count was 0 of 6.

Which survivor count (dose: 40.0 mg/kg/injection, schedule: Q01DX001 (ip), vehicle: saline) does the source give for `O=C([O-])C(=O)[O-].[Cu+2].[OH2+]CC[N-]CC[OH2+].[OH2+]CC[N-]CC[OH2+]` here?
Its survivor count is 2 of 4.

What about the survivor count (dose: 50.0 mg/kg/injection, schedule: Q01DX001 (ip), vehicle: carboxymethylcellulose (CMC)) of the same compound?
Its survivor count is 0 of 4.

And the survivor count (dose: 80.0 mg/kg/injection, schedule: Q01DX001 (ip), vehicle: saline)?
Its survivor count is 0 of 4.

What about the survivor count [2] of the same compound?
The survivor count was 0 of 4.

What about the survivor count [3] of the same compound?
Its survivor count is 0 of 4.

And the survivor count [4]?
The survivor count was 0 of 4.

Which results are given for `S=C1CC2CCCC(C2)N1` (stereo not drawn)?
survivor count (dose: 40.0 mg/kg/injection, schedule: Q01DX001 (ip), vehicle: carboxymethylcellulose (CMC)): 3 of 6; survivor count [2]: 2 of 6; survivor count [3]: 1 of 6; survivor count [4]: 1 of 6

How did the survivor count [5] turn out when `CC(C)(CO)CN1CCCC1` was run?
The survivor count was 0 of 4.

For `NCCCOc1ccc([N+](=O)[O-])cc1`, which survivor count [5] is on record?
The survivor count was 0 of 6.

And the survivor count (dose: 400.0 mg/kg/injection, schedule: Q04DX002 (ip), vehicle: saline)?
Its survivor count is 0 of 6 and 1 of 3.

With `COC1=NS(=O)(=O)C=C(c2ccccc2)O1` as the compound, how does the survivor count (dose: 150.0 mg/kg/injection, schedule: Q04DX002 (ip), vehicle: Klucel (hydroxypropylcellulose) (HPC)) read?
The survivor count was 0 of 3.

`C=CCNC(=O)/C=C/C(=O)O` was tested. Which survivor count [6] did it give?
Its survivor count is 0 of 6.

Which survivor count [5] does the source give for `Clc1ccc2c(CBr)ccnc2c1` here?
Its survivor count is 0 of 6.

What does the source list for `N#CCNC(=O)c1ccccc1`?
survivor count (dose: 100.0 mg/kg/injection, schedule: Q01DX009 (ip), vehicle: Klucel (hydroxypropylcellulose) (HPC)): 0 of 6; survivor count (dose: 100.0 mg/kg/injection, schedule: Q04DX003 (ip), vehicle: Klucel (hydroxypropylcellulose) (HPC)): 1 of 6 and 4 of 6; survivor count [7]: 0 of 6; survivor count (dose: 200.0 mg/kg/injection, schedule: Q04DX003 (ip), vehicle: Klucel (hydroxypropylcellulose) (HPC)): 0 of 6; survivor count (dose: 400.0 mg/kg/injection, schedule: Q01DX009 (ip), vehicle: Klucel (hydroxypropylcellulose) (HPC)): 0 of 6; survivor count (dose: 400.0 mg/kg/injection, schedule: Q04DX003 (ip), vehicle: Klucel (hydroxypropylcellulose) (HPC)): 0 of 6

`O=[N+]([O-])c1ccc(N/N=C\c2ccc(OCc3ccccc3)cc2)c([N+](=O)[O-])c1` was tested. Which survivor count (dose: 200.0 mg/kg/injection, schedule: Q01DX001 (ip), vehicle: other) did it give?
Its survivor count is 6 of 6.

And the survivor count (dose: 400.0 mg/kg/injection, schedule: Q01DX001 (ip), vehicle: other)?
Its survivor count is 6 of 6.

With `c1nc(N2CC2)c2cnn(C3CCCCO3)c2n1` (stereo not drawn) as the compound, how does the survivor count [8] read?
The survivor count was 2 of 6.

How did the T/C [9] turn out when `CCOC(=O)c1ccc(NC(=O)Nc2cc(OC)ccc2OC)cc1` was run?
Its T/C is 88, 91, 92, 93 % of control.

And the survivor count [10]?
The survivor count was 6 of 6.

And the survivor count [11]?
The survivor count was 6 of 6.

What about the survivor count [12] of the same compound?
Its survivor count is 3 of 3 and 6 of 6.

And the survivor count [13]?
The survivor count was 6 of 6.

`C=C(Cl)CSCCCS` was tested. Which survivor count (dose: 400.0 mg/kg/injection, schedule: Q01DX009 (ip), vehicle: acetone) did it give?
Its survivor count is 0 of 6.

With `CCCCNC(C)(C)C(SSSC(C)=O)c1ccco1` (stereo not drawn) as the compound, how does the survivor count [9] read?
Its survivor count is 0 of 6.

What about the survivor count (dose: 100.0 mg/kg/injection, schedule: Q04DX003 (ip), vehicle: saline with Tween-80) of the same compound?
The survivor count was 6 of 6.

And the survivor count [11]?
Its survivor count is 3 of 6.

What about the survivor count [13] of the same compound?
Its survivor count is 0 of 6.

For `CCOC(=O)NCc1cnccn1`, which T/C [8] is on record?
Its T/C is 132 % of control.

For `CC(=O)OC1(C)CC(C)C(O)C(C(O)CC2CC(=O)NC(=O)C2)C1` (stereo not drawn), which survivor count (dose: 40.0 mg/kg/injection, schedule: Q01DX001 (ip), vehicle: water) is on record?
Its survivor count is 2 of 4.

How did the survivor count (dose: 100.0 mg/kg/injection, schedule: Q04DX003 (ip), vehicle: saline) turn out when `CCOP(=O)(/N=C1/C2CCC(C2)C1C)OCC` (stereo not drawn) was run?
Its survivor count is 1 of 6.

What about the survivor count (dose: 200.0 mg/kg/injection, schedule: Q04DX003 (ip), vehicle: saline) of the same compound?
The survivor count was 0 of 6.

And the survivor count [8]?
Its survivor count is 0 of 6.

How did the survivor count (dose: 100.0 mg/kg/injection, schedule: Q04DX002 (ip), vehicle: saline) turn out when `NC(Cc1ccccc1)C(=O)CCl` (stereo not drawn) was run?
Its survivor count is 1 of 3.

How did the survivor count [7] turn out when `O=C(Nc1cccc(F)c1)Nc1cc(Cl)ccc1Cl` was run?
The survivor count was 6 of 6.

`O=[N+]([O-])CC(O)c1ccc2ccccc2n1` (stereo not drawn) was tested. Which survivor count [6] did it give?
The survivor count was 0 of 6.

And the survivor count [8]?
Its survivor count is 5 of 6.

Which survivor count (dose: 300.0 mg/kg/injection, schedule: Q01DX001 (ip), vehicle: carboxymethylcellulose (CMC)) does the source give for `COC1(C)C(=O)Oc2c1c1ccccc1c1ccccc21` (stereo not drawn) here?
Its survivor count is 6 of 6.

For `CC(=O)N(C)c1ccc(S(=O)(=O)F)cc1`, which survivor count [1] is on record?
Its survivor count is 0 of 3.

Which survivor count [1] does the source give for `CCOC(=O)C1(c2ccccc2)CCN(CCC(=O)c2ccc(F)cc2)CC1` here?
The survivor count was 1 of 6.

For `CC1(C)OC(CF)C2OC(C)(C)OC(CF)C2O1` (stereo not drawn), which survivor count (dose: 225.0 mg/kg/injection, schedule: Q01DX009 (ip), vehicle: carboxymethylcellulose (CMC)) is on record?
The survivor count was 2 of 6.

Which results are given for `Clc1ccc(-c2cc(=[N+]3CCCCC3)ss2)cc1`?
survivor count (dose: 50.0 mg/kg/injection, schedule: Q01DX009 (ip), vehicle: saline with Tween-80): 0 of 6; survivor count [10]: 2 of 6; survivor count (dose: 300.0 mg/kg/injection, schedule: Q01DX009 (ip), vehicle: saline with Tween-80): 0 of 6; survivor count [13]: 0 of 6

With `CSc1nnc(-c2ccncc2)s1` as the compound, how does the survivor count [8] read?
The survivor count was 0 of 6.

`CC(O)CN(CC(C)O)c1ccccc1` (stereo not drawn) was tested. Which survivor count [12] did it give?
The survivor count was 3 of 6.

Which results are given for `CN(C)[C@@H]1C(=O)C(C(=O)NCNC(CO)(CO)CO)=C(O)[C@@]2(O)C(=O)C3=C(O)c4c(O)cccc4[C@@](C)(O)[C@H]3C[C@@H]12`?
survivor count (dose: 56.0 mg/kg/injection, schedule: Q01DX Z (ip), vehicle: saline): 6 of 6; T/C (dose: 200.0 mg/kg/injection, schedule: Q01DX009 (ip), vehicle: saline): 125 and 128 % of control [4 of 6 alive]; survivor count (dose: 240.0 mg/kg/injection, schedule: Q01DX Z (ip), vehicle: saline): 4 of 6; survivor count [6]: 2 of 6; survivor count (dose: 448.0 mg/kg/injection, schedule: Q01DX Z (ip), vehicle: saline): 0 of 6; survivor count (dose: 480.0 mg/kg/injection, schedule: Q01DX Z (ip), vehicle: saline): 0 of 6; survivor count (dose: 960.0 mg/kg/injection, schedule: Q01DX Z (ip), vehicle: saline): 0 of 6

How did the survivor count (dose: 300.0 mg/kg/injection, schedule: Q01DX001 (ip), vehicle: saline) turn out when `O=C(O)c1c(-c2nccc3ccccc23)[nH]c(-c2ccccc2)c1S(=O)(=O)O` was run?
The survivor count was 2 of 6.

With `CCNC(C)(C)C(=O)c1ccc(Cl)s1` as the compound, how does the survivor count [12] read?
Its survivor count is 3 of 6.

`Cc1cc(=O)[nH]c(O)c1C(=O)CC(=O)c1ccccc1` was tested. Which survivor count [5] did it give?
Its survivor count is 1 of 6.
